PubChem BioAssay AID1259308 – NCATS, 2017
Purpose: 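Genes whose loss raises luciferase production in HEK293 cells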 (primary screen). Cell system: human HEK293 embryonic kidney cells stably expressing firefly luciferase (HEK-CMV-Luc2-Hygro). Reagents: single siRNA against human genes, 0.8 pmol siRNA per well. Duration: 72 h. Read-out: 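Reporter luminescence and viable-cell signal on separate replicate plates, given as percent of non-targeting control and median/MAD z-scores, plus per-cell luciferase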. Scale: total luciferase, z-score: higher = more reporter protein produced. Rule for the call: 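An siRNA counts as active if its total luciferase robust z-score exceeds 3; genes with two or more such siRNAs out of three were retested with fresh siRNAs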. Meaning of the calls: active = raised luciferase; inactive = no rise.
Shown is an unselected part of about 59,000 deposited reagents. About 1,510 of them (2.6%) count as active. 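Calls use total luciferase alone and ignore viability, so some active siRNAs may act by altering cell number.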 The numbers tell different reagents against one gene apart. Not all columns of the deposit are shown.

total luciferase, z-score, by gene and reagent
OTULINL: #1 -1.32 inactive; #2 0.377 inactive; #3 -0.845 inactive
PDLIM1: #1 0.43 inactive; #2 0.46 inactive; #3 -0.68 inactive
CXCR4: #1 0.111 inactive; #2 1.58 inactive; #3 -1.26 inactive
CMSS1: #1 0.0609 inactive; #2 -0.99 inactive; #3 -0.906 inactive
BGLAP: #1 0.241 inactive; #2 -1.67 inactive; #3 -1.38 inactive
KLHL29: #1 1.53 inactive; #2 -1.57 inactive; #3 0.115 inactive
SLFN12: #1 2.05 inactive; #2 -1.92 inactive; #3 -2.08 inactive
IGFL1: #1 0.688 inactive; #2 -1.16 inactive; #3 -1.25 inactive
RABGAP1L: #1 1.28 inactive; #2 2.03 inactive; #3 2.51 inactive
SLC1A3: #1 -2.93 inactive; #2 0.157 inactive; #3 -0.0694 inactive
PROKR1: #1 -0.141 inactive; #2 -0.025 inactive; #3 -0.847 inactive
GPAT3: #1 -0.633 inactive; #2 -0.17 inactive; #3 0.852 inactive
TASOR: #1 1.12 inactive; #2 0.691 inactive; #3 2.91 inactive
SLC67A1-AS: #1 -0.0266 inactive; #2 -0.776 inactive; #3 -1.18 inactive
LOC644554: #1 0.306 inactive; #2 0.488 inactive; #3 -0.0153 inactive
AP1M2: #1 1.04 inactive; #2 0.304 inactive; #3 0.133 inactive
CHAF1A: #1 5.35 active; #2 3.1 active; #3 5.3 active
SNTA1: #1 0.197 inactive; #2 -0.293 inactive; #3 2.85 inactive
LRRC32: #1 -1.54 inactive; #2 -0.95 inactive; #3 2.14 inactive

Records listed so far whose target name begins with G or g:
total luciferase, z-score, by gene and reagent
GPAT3: #1 -0.633 inactive; #2 -0.17 inactive; #3 0.852 inactive
